# Measurements published in US9187790B2, “Saccharification of lignocellulosic biomass” (priority 2012, dated 2015).
# Some of these results come from one statement about several compounds together. For at least one compound, name, drawing or mass did not settle the structure.
# System: Saccharomyces cerevisiae
# Assay: Glucose fermentation to ethanol in the presence of residual salt
# Format: cell-based
# Source text: Complete separation of LiBr from sugars is difficult and expensive. Small amounts of LiBr or CaBr2 may be retained in the sugar product stream generated by the processes of this invention. If the sugars are intended for use for fermentation, the residual salt could potentially affect the fermentation. […]
structure (smiles),measurement,value
"[Br-].[Li+] [LiBr, Lithium bromide]",residual level tolerated in sugar product streams for fermentation to ethanol,below 5 % (w/v)
